Source: the supplement of paper PMC4604168 (melanoma cell lines)
This is one part of the list. Single values are uncertain, as repeats are few or missing.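 The apoptosis fraction was the count of cleaved-PARP antibody-stained nuclei relative to all DNA-stained nuclei, imaged in 1,536-well plates. Screening doses were set so most cells survived, and baseline and induced cleaved-PARP levels vary greatly across cell lines.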

What was measured:
Assay in all cases: cleaved PARP positive nuclei fraction relative to DMSO control; melanoma cells; higher = more apoptosis
Conditions in all cases: library dose: low library concentration; 72 h
MZ2-MEL = test system: MZ2-MEL
MeWo = test system: MeWo
RPMI7951 = test system: RPMI7951
RVH-421 = test system: RVH-421
SkMel28 = test system: SkMel28
SkMel2 = test system: SkMel2
SkMel30 = test system: SkMel30
SkMel5 = test system: SkMel5
UACC257 = test system: UACC257
UACC62 = test system: UACC62

SMILES	cleaved PARP positive nuclei fraction (MZ2-MEL) [%]	cleaved PARP positive nuclei fraction (MeWo) [%]	cleaved PARP positive nuclei fraction (RPMI7951) [%]	cleaved PARP positive nuclei fraction (RVH-421) [%]	cleaved PARP positive nuclei fraction (SkMel28) [%]	cleaved PARP positive nuclei fraction (SkMel2) [%]	cleaved PARP positive nuclei fraction (SkMel30) [%]	cleaved PARP positive nuclei fraction (SkMel5) [%]	cleaved PARP positive nuclei fraction (UACC257) [%]	cleaved PARP positive nuclei fraction (UACC62) [%]
CS(=O)(=O)c1ccc(C(=O)Nc2ccc(Cl)c(-c3ccccn3)c2)c(Cl)c1 [vismodegib] + O=C(Oc1ccc([N+](=O)[O-])cc1)N1CCC(C(O)(c2ccc3c(c2)OCO3)c2ccc3c(c2)OCO3)CC1 [JZL184] (first compound 1 µM, partner dose 1 µM)	56.9	43.7	30.8	77.8	86.5	70.4	186	182	51.2	58.5
CCCCCCCCCCCCCCCCCCOP(=O)([O-])OC1CC[N+](C)(C)CC1 [Perifosine] + Cc1cc(SCc2sc(-c3ccc(C(F)(F)F)c(F)c3)nc2C)ccc1OCC(=O)O [GW0742] (first compound 0.4 µM, partner dose 2 µM)	18.8	77.6	91.5	126	81.4	65.1	105	138	164	202
C[As](C)SC[C@H](NC(=O)CC[C@H](N)C(=O)O)C(=O)NCC(=O)O [Darinaparsin] + CC1(C)NC(=O)N(c2ccc([N+](=O)[O-])c(C(F)(F)F)c2)C1=O [nilutamide] (first compound 0.4 µM, partner dose 1 µM)	112	210	52.2	44.8	179	95.3	72	33	100	85.4
CC(C)C[C@H](NC(=O)[C@H](Cc1ccccc1)NC(=O)c1cnccn1)B(O)O [Bortezomib] + O=C(Oc1ccc([N+](=O)[O-])cc1)N1CCC(C(O)(c2ccc3c(c2)OCO3)c2ccc3c(c2)OCO3)CC1 [JZL184] (first compound 0.001 µM, partner dose 1 µM)	118	180	137	157	20.5	40.7	153	92.3	973	144
N.N.[Cl][Pt][Cl] [cisplatin] + O=C(Nc1cccc(Cl)c1)Nc1ncc(CCNc2ncnc3ccsc23)s1 [SNS314] (first compound 1.6 µM, partner dose 0.0008 µM)	115	126	116	93.3	51.5	93.8	50.3	132	77.2	106
Cn1cc(C2=C(c3cn(C4CCN(Cc5ccccn5)CC4)c4ccccc34)C(=O)NC2=O)c2ccccc21 [Enzastaurin] + C=CCn1c(=O)c2cnc(Nc3ccc(N4CCN(C)CC4)cc3)nc2n1-c1cccc(C(C)(C)O)n1 [MK1775] (first compound 0.8 µM, partner dose 0.02 µM)	152	94.9	99.8	130	39.6	170	69.4	477	61.9	34
C[As](C)SC[C@H](NC(=O)CC[C@H](N)C(=O)O)C(=O)NCC(=O)O [Darinaparsin] + O=C(CCCCCCC(=O)Nc1ccccc1)NO [vorinostat] (first compound 0.4 µM, partner dose 0.08 µM)	52.6	157	89.7	184	177	218	54.3	65	23.7	99.2
C[As](C)SC[C@H](NC(=O)CC[C@H](N)C(=O)O)C(=O)NCC(=O)O [Darinaparsin] + CC(C)(C)c1cnc(CSc2cnc(NC(=O)C3CCNCC3)s2)o1 [SNS-032] (first compound 0.4 µM, partner dose 0.01 µM)	205	162	187	78.2	60.5	118	59.3	327	70.4	82.7
O=C(Nc1cc(C(F)(F)F)cc(C(F)(F)F)c1)c1cc(Cl)ccc1O + C/C(O)=C(\C#N)C(=O)Nc1cc(Br)ccc1Br [LFM-A13] (first compound 0.016 µM, partner dose 2 µM)	137	110	63.7	58.2	90.4	113	77.7	62.2	215	135
N.N.[Cl][Pt][Cl] [cisplatin] + NC(=O)Nc1cc(-c2cccc(F)c2)sc1C(=O)N[C@H]1CCCNC1 [AZD7762] (first compound 1.6 µM, partner dose 0.02 µM)	106	135	41.6	108	147	64.5	59.7	120	307	79.3
Cn1cc(C2=C(c3cn(C4CCN(Cc5ccccn5)CC4)c4ccccc34)C(=O)NC2=O)c2ccccc21 [Enzastaurin] + C/C(O)=C(\C#N)C(=O)Nc1cc(Br)ccc1Br [LFM-A13] (first compound 0.8 µM, partner dose 2 µM)	79.1	76.7	159	271	225	109	49.5	83.6	323	58.2
Cn1cc(C2=C(c3cn(C4CCN(Cc5ccccn5)CC4)c4ccccc34)C(=O)NC2=O)c2ccccc21 [Enzastaurin] + COc1cc2ncnc(Nc3ccc(Oc4ccccc4)cc3)c2cc1OC [SrcI1] (first compound 0.8 µM, partner dose 2 µM)	70.8	36.9	30.8	28.8	213	78.3	70.5	67.7	158	97.2
C[As](C)SC[C@H](NC(=O)CC[C@H](N)C(=O)O)C(=O)NCC(=O)O [Darinaparsin] + NCC(=O)Nc1ccc(-n2nc(C(F)(F)F)cc2-c2ccc3c(ccc4ccccc43)c2)cc1 [OSU03012] (first compound 0.4 µM, partner dose 1 µM)	56.5	80.8	52.2	27.8	113	76	147	110	203	77.4
O=c1[nH]nc(Sc2ncc([N+](=O)[O-])s2)n1-c1ccc2c(c1)OCCO2 + Cc1cc(SCc2sc(-c3ccc(C(F)(F)F)c(F)c3)nc2C)ccc1OCC(=O)O [GW0742] (first compound 0.2 µM, partner dose 2 µM)	98.1	38.5	55.2	202	129	81.3	15.4	39.1	181	325
Cn1cc(C2=C(c3cn(C4CCN(Cc5ccccn5)CC4)c4ccccc34)C(=O)NC2=O)c2ccccc21 [Enzastaurin] + O=C1NC(=O)/C(=C/c2ccc(-c3ccc(F)cc3O)o2)S1 [AS252424] (first compound 0.8 µM, partner dose 1 µM)	71.9	204	64.2	332	84.1	175	27.4	73.7	135	89.5
CCCCCCCCCCCCCCCCCCOP(=O)([O-])OC1CC[N+](C)(C)CC1 [Perifosine] + O=C(Oc1ccc([N+](=O)[O-])cc1)N1CCC(C(O)(c2ccc3c(c2)OCO3)c2ccc3c(c2)OCO3)CC1 [JZL184] (first compound 0.4 µM, partner dose 1 µM)	39.8	64.5	78.8	90.8	182	78	16.2	73.4	11.4	81
Cn1cc(C2=C(c3cn(C4CCN(Cc5ccccn5)CC4)c4ccccc34)C(=O)NC2=O)c2ccccc21 [Enzastaurin] + Cn1cncc1[C@@](N)(c1ccc(Cl)cc1)c1ccc2c(c1)c(-c1cccc(Cl)c1)cc(=O)n2C [tipifarnib] (first compound 0.8 µM, partner dose 0.01 µM)	99	153	49.7	66.4	67.7	232	56.4	137	47.5	224
O=C(/C=C/c1cccnc1)NCCCCC1CCN(C(=O)c2ccccc2)CC1 + O=C(Oc1ccc([N+](=O)[O-])cc1)N1CCC(C(O)(c2ccc3c(c2)OCO3)c2ccc3c(c2)OCO3)CC1 [JZL184] (first compound 0.01 µM, partner dose 1 µM)	497	253	199	215	58.8	552	93.9	187	99.5	223
CN1CCN(c2ccc3nc(-c4c(N)c5c(F)cccc5[nH]c4=O)[nH]c3c2)CC1 [Dovitinib] + O=C(Oc1ccc([N+](=O)[O-])cc1)N1CCC(C(O)(c2ccc3c(c2)OCO3)c2ccc3c(c2)OCO3)CC1 [JZL184] (first compound 0.1 µM, partner dose 1 µM)	73.8	52.7	197	93.1	147	158	140	98.1	440	121
CCN(CC)CCNC(=O)c1c(C)[nH]c(/C=C2\C(=O)Nc3ccc(F)cc32)c1C [sunitinib] + O=C(Oc1ccc([N+](=O)[O-])cc1)N1CCC(C(O)(c2ccc3c(c2)OCO3)c2ccc3c(c2)OCO3)CC1 [JZL184] (first compound 0.4 µM, partner dose 1 µM)	142	69.2	65.1	56.1	117	67.3	97.9	69.7	135	105

Record cards, from the list above. Order of values: cleaved PARP positive nuclei fraction (MZ2-MEL) [%]	cleaved PARP positive nuclei fraction (MeWo) [%]	cleaved PARP positive nuclei fraction (RPMI7951) [%]	cleaved PARP positive nuclei fraction (RVH-421) [%]	cleaved PARP positive nuclei fraction (SkMel28) [%]	cleaved PARP positive nuclei fraction (SkMel2) [%]	cleaved PARP positive nuclei fraction (SkMel30) [%]	cleaved PARP positive nuclei fraction (SkMel5) [%]	cleaved PARP positive nuclei fraction (UACC257) [%]	cleaved PARP positive nuclei fraction (UACC62) [%]
CCCCCCCCCCCCCCCCCCOP(=O)([O-])OC1CC[N+](C)(C)CC1 [Perifosine] + Cc1cc(SCc2sc(-c3ccc(C(F)(F)F)c(F)c3)nc2C)ccc1OCC(=O)O [GW0742] (first compound 0.4 µM, partner dose 2 µM) in the list: 18.8	77.6	91.5	126	81.4	65.1	105	138	164	202
CS(=O)(=O)c1ccc(C(=O)Nc2ccc(Cl)c(-c3ccccn3)c2)c(Cl)c1 [vismodegib] + O=C(Oc1ccc([N+](=O)[O-])cc1)N1CCC(C(O)(c2ccc3c(c2)OCO3)c2ccc3c(c2)OCO3)CC1 [JZL184] (first compound 1 µM, partner dose 1 µM) in the list: 56.9	43.7	30.8	77.8	86.5	70.4	186	182	51.2	58.5
